Laboratory results: PubChem BioAssay AID504784 (Drosophila RNAi Screening Center, 2011)
Aim: 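Genome-wide knock-down for genes giving too much or too little stored lipid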 (primary screen). Cells: Drosophila Kc167 embryonic cells. Reagents: long dsRNA against Drosophila genes, about 250 ng dsRNA per well. Duration: 4 days. Treatment: cells fed 400 µM oleic acid bound to BSA. Measured: 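Cells imaged and segmented; ratio of lipid droplet area to nuclear area, log-transformed, then normalised as a B-score over the screen; higher means more stored lipid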. Reading the numbers: droplet/nuclear area B-score: higher = more stored lipid (overstorage).
The deposit covers about 17,000 reagents; this is an unselected part of those that have a named target and a result. 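Each column is one replicate's B-score; the combined score over replicates was not deposited, so single values may mislead.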 A plus sign joins genes that one reagent is predicted to hit.

gene knocked down	dsRNA	droplet/nuclear area B-score, replicate 1	droplet/nuclear area B-score, replicate 2	droplet/nuclear area B-score, replicate 3
CG42676	DRSC08227	2.41	3.81	
CG42676	DRSC08392	1.64	-0.168	
Itpr (Inositol 1,4,5,-trisphosphate receptor)	DRSC12354	2.02	0.48	
Nepl10 (Neprilysin-like 10)	DRSC07212	1	1.88	
CG3038	DRSC18618	1.22	-1.7	
CG13280	DRSC02253	0.239	-0.64	
Ir94f (Ionotropic receptor 94f)	DRSC13621	0.342	0.733	
bumpel	DRSC16100	0.591	-1.64	
cindr (CIN85 and CD2AP related)	DRSC14126	-0.478	2.04	
cindr (CIN85 and CD2AP related)	DRSC14298	0.461	1.96	
Mmp2 (Matrix metalloproteinase 2)	DRSC06698	1.4	-1.28	
Mmp2 (Matrix metalloproteinase 2)	DRSC22024	-0.129	-0.888	
CG13532	DRSC04174	0.0683	2.26	
CG13991	DRSC02323	2.06	-2.02	
Pgant2 (Polypeptide N-Acetylgalactosaminyltransferase 2)	DRSC00587	-1.41	0.238	
Gr47a (Gustatory receptor 47a)	DRSC06221	-0.646	-0.175	
Osbp (Oxysterol binding protein)	DRSC16779	1.93	-0.138	
GstE10 (Glutathione S transferase E10)	DRSC06671	1.01	3.92	
Scsalpha1 (Succinyl-coenzyme A synthetase alpha subunit 1)	DRSC08698	0.714	2.53	
CG30334	DRSC05345	1.13	-0.529	
knon (knotted onions)	DRSC07049	-0.0156	0.313	
CG8641	DRSC11028	-1.13	1.87	
wts (warts)	DRSC17096	-0.211	0.374	
wts (warts)	DRSC22975	2.83	-0.8	
CG30161	DRSC22141	0.626	1.01	
CG32986	DRSC02509	-0.999	-0.912	
Ankle2	DRSC20105	-1.04	0.541	
Ankle2	DRSC20106	0.433	0.946	
CG9747	DRSC16554	-1.85	-0.344	-0.818
RpL24 (Ribosomal protein L24)	DRSC03185	12.5	7.42	
CG2841	DRSC17699	-0.0538	-0.537	
CG2841	DRSC18824	-0.551	-0.0408	
CG2841	DRSC22106	-0.229	0.616	
CG4679	DRSC06880	2.14	0.982	

Looked up above.
GstE10 (Glutathione S transferase E10) [DRSC06671], droplet/nuclear area B-score, replicate 1: 1.01
For “droplet/nuclear area B-score, replicate 1”, Itpr (Inositol 1,4,5,-trisphosphate receptor) [DRSC12354] is entered as 2.02
CG2841 [DRSC17699], droplet/nuclear area B-score, replicate 1 = -0.0538
Result of CG30161 [DRSC22141] under “droplet/nuclear area B-score, replicate 1”: 0.626
Result of Scsalpha1 (Succinyl-coenzyme A synthetase alpha subunit 1) [DRSC08698] under “droplet/nuclear area B-score, replicate 1”: 0.714
Mmp2 (Matrix metalloproteinase 2) [DRSC22024], droplet/nuclear area B-score, replicate 1 = -0.129

The listing continues.
gene knocked down	dsRNA	droplet/nuclear area B-score, replicate 1	droplet/nuclear area B-score, replicate 2	droplet/nuclear area B-score, replicate 3
CG32278 + CG14963	DRSC22203	-0.266	-2.26	
CG31926	DRSC00295	0.0108	1.73	
Jon65Aiv (Jonah 65Aiv)	DRSC10644	-0.885	-0.303	
Zfrp8 (Zinc finger protein RP-8)	DRSC04352	-2	-1.05	
t (tan)	DRSC17815	-0.22	0.0803	0.0393
CG31128	DRSC13675	-0.0338	0.287	
hll (heimdall)	DRSC01944	1.14	1.19	
CG33178	DRSC19950	-0.84	-0.657	
js (jiangshi)	DRSC15004	-0.162	-0.0189	
RhoBTB (Rho-related BTB domain containing)	DRSC11877	0.587	-0.613	0.515
Spp (Signal peptide peptidase)	DRSC00328	0.0218	0.468	
HSPBAP1 (HSPB1 associated protein 1)	DRSC14567	0.294	-0.641	
CG18581	DRSC10324	0.439	-0.78	
CG15306	DRSC17993	-2.09	1.71	1.31
CG15306	DRSC18240	0.133	1.41	0.325
CG5149	DRSC02819	0.965	-0.159	
CG3699	DRSC18171	0.972	-0.454	
CG3699	DRSC18642	1.49	-0.404	
CG14402	DRSC02386	-0.588	1.72	
spict (spichthyin)	DRSC02157	-0.0687	-2.33	
Dna2 (DNA replication helicase/nuclease 2)	DRSC18254	1.71	0.106	0.311
plu (plutonium)	DRSC07665	-0.882	0.103	
